Measurements as given in article PMC5640240.
No constants are given. Whether binding was seen depends on the method and setting. In cells and extracts the contact can be indirect. Some binding calls cover weakened binding; strength is not graded here. For some of these results: Where a sequence is shown, tags or fusion partners need not be part of it. Blank lines part the entries; values can stand above or below the molecule they belong to.

By UniProt entry, the sequences of proteins in these tests, tags left out.
UniProt P61244: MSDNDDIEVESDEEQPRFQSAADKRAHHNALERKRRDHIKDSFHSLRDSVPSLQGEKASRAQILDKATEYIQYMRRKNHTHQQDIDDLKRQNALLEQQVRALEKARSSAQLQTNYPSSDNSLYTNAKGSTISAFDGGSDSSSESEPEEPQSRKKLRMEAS
UniProt P67775: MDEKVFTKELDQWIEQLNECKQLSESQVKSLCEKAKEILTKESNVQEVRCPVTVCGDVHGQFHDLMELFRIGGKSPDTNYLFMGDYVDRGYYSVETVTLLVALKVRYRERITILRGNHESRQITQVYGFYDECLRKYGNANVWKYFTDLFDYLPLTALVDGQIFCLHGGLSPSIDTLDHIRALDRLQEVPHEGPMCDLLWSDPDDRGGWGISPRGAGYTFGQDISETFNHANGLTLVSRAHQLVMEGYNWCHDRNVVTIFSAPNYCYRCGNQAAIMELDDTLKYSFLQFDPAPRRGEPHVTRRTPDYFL

Legend:
[1] = target: VPS72 (human (endogenous in MKL-1)) (UniProt Q15906); experiment: co-IP; MKL-1 lysates (EBC buffer), endogenous proteins; antibodies on protein G Dynabeads overnight at 4°C, five washes with 300 mM NaCl buffer, immunoblot; includes cells with shScr, shPanT, shST, Dox-inducible shMYCL, mirMYCL or shEP400
[2] = target: EP400 (human (endogenous in MKL-1)) (UniProt Q96L91); experiment: as above
[3] = target: MAX (human (endogenous in MKL-1 and the other cell lines)) (UniProt P61244); experiment: as above
[4] = target: EPC1 (human (endogenous in MKL-1)) (UniProt Q9H2F5); experiment: as above
[5] = target: ACTL6A (human (endogenous in MKL-1)) (UniProt O96019); experiment: as above
[6] = target: T1, MYCL with C-terminal 3xHA tag, wild type (human) (UniProt P12524); experiment: co-IP; lysates of HCT116 cells stably expressing C-terminal 3xHA-tagged MYCL constructs without ST; immunoprecipitated with HA antibody and blotted
T1 sequence: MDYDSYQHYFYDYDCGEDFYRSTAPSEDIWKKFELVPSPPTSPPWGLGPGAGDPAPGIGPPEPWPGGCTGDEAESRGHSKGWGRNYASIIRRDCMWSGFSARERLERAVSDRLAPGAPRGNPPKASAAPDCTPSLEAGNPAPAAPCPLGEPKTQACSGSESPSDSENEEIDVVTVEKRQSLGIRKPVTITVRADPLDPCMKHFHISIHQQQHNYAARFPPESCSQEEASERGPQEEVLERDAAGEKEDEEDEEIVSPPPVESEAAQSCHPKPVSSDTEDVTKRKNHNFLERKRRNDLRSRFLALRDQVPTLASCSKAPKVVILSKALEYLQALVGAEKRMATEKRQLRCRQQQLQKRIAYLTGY

- binding [1]: binds
- binding [2]: binds
- binding [3]: binds
- binding [4]: binds
- binding [5]: binds
Molecule: PPP2CA (from UniProt P67775 1-309)

- binding [2]: binds
Molecule: YEATS4 (from UniProt O95619 1-227)

- binding [6]: binds
Molecule: MAX (from UniProt P61244 1-160)

- binding [2]: binds
Molecule: TRRAP (from UniProt Q9Y4A5 1-3859)

- binding [2]: binds
Molecule: DMAP1 (from UniProt Q9NPF5 1-467)

- binding [3]: binds
B1: MYCL (protein, UniProt P12524 1-364)
chain: T1 sequence
